The subject of this experiment is Jurkat. The experiment in a line: Cytotoxicity against human Jurkat cells after 48 hrs by Celltiter-Glo luminescent cell viability assay. The class given is functional, cell-based. In general terms: Cellular ATP, detected with luciferase, serves as a proxy for viable cell number.

In general, IC50 refers to the concentration that inhibits the measured activity by half.

With `COc1cc2c(c(OC)c1OC)-c1ccc(OC)c(=O)cc1[C@@H](NC(C)=O)CC2` [COLCHICINE], the midpoint of inhibition, the IC50, lay at 13.5 nM.
